These are yes or no findings as the source states them, for the method shown. In cells and extracts the contact can be indirect. Some binding calls cover weakened binding; strength is not graded here. For some assays here: Sequences can lack the tags named with a protein.
T1: VC-Exd (Extradenticle fused to the C-terminal fragment of Venus) (Drosophila (D. melanogaster)) (UniProt P40427)
T1 sequence: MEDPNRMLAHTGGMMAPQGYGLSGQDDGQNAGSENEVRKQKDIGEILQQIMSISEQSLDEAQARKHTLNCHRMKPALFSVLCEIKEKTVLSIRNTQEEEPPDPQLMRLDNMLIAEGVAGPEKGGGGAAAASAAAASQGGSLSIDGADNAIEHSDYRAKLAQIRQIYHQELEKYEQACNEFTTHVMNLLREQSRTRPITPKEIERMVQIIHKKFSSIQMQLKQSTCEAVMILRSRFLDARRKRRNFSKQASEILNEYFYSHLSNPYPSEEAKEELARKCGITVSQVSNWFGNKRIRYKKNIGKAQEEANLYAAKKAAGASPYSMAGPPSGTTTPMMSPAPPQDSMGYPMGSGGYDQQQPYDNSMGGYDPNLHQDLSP

Amino acid sequences for entries named in this document (tags omitted).
UniProt P29555: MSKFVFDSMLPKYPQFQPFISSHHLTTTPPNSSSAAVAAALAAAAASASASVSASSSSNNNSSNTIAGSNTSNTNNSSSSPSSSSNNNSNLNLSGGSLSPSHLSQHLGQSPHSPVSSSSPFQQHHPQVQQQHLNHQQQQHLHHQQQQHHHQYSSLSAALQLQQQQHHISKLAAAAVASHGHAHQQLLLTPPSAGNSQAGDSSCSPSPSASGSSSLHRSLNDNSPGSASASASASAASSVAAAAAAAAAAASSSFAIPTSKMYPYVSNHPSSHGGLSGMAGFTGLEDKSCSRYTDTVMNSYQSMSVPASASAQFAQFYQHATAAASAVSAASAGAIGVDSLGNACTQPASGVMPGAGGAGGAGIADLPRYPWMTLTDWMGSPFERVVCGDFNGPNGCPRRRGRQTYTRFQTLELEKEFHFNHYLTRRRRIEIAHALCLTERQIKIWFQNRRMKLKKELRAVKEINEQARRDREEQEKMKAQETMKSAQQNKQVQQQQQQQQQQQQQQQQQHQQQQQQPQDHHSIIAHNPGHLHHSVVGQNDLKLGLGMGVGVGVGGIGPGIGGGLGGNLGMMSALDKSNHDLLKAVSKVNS

T2: VN-Exd (Extradenticle fused to the N-terminal fragment of Venus) (Drosophila (D. melanogaster)) (UniProt P40427)
T2 sequence: T1 sequence

B1: Bagpipe fused to VN (protein, UniProt P22809 1-382)
chain: MLNMESAGVSAAMAGLSKSLTTPFSINDILTRSNPETRRMSSVDSEPEPEKLKPSSDRERSISKSPPLCCRDLGLYKLTQPKEIQPSARQPSNYLQYYAAAMDNNNHHHQATGTSNSSAADYMQRKLAYFGSTLAAPLDMRRCTSNDSDCDSPPPLSSSPSESPLSHDGSGLSRKKRSRAAFSHAQVFELERRFAQQRYLSGPERSEMAKSLRLTETQVKIWFQNRRYKTKRKQIQQHEAALLGASKRVPVQVLVREDGSTTYAHMAAPGAGHGLDPALINIYRHQLQLAYGGLPLPQMQMPFPYFYPQHKVPQPIPPPTQSSSFVTASSASSSPVPIPIPGAVRPQRTPCPSPNGQMMSVESGAESVHSAAEDVDENVEID
B2: Tinman fused to VN (protein, UniProt P22711 1-416)
chain: MLQHHQQQAQSGGYYDHYTQSPSPGSLTNADALNTTPFSVKDILNMVNQTEAYEGSYGHIDGAATASALFAAGEYQNPHQYLNHQQHQQSELPIPQQQLHHQHLDDGATTSSSLSPLLPPPPHQLYGGYQDYGMPAHMFQHHHGHPHQSFQHSASAYNMSASQFYAGASATAYQTPATYNYNYAGSGEVYGGATPSAVGIKSEYIPTPYVTPSPTLDLNSSAEVDSLQAPTQKLCVNPLSQRLMETASNSSSLRSIYGSDEGAKKKDNSQVTSSRSELRKNSISGNSNPGSNSGSTKPRMKRKPRVLFSQAQVLELECRFRLKKYLTGAEREIIAQKLNLSATQVKIWFQNRRYKSKRGDIDCEGIAKHLKLKSEPLDSPTSLPPPIPNHVMWPPTMQQSQQQQQHHAQQQQMQHM
B3: Empty spiracles fused to VN (protein, UniProt P18488 1-494)
chain: MTKMIPPVPTAAAAVMMPTPKQKIGFSIESIVGNDVSTAGGNSTPDLSGPQSPPPGERNVPGSPPQTPPATLTLIPGSPPHHLMAPPAHGLPYPHPHAQQQHLQAPHPHPHLSPAQQHVLHQHLLMQQQHPGTPKSHQDIQELLQRLHHNAAMASGLSPLQTRLSPETEQPQMAVSLKRERSPAPPAMEQAENPAQRIQPPHTPPKSVSPQSSQPSSSPTLLISSPHATPPQQQQQQPPPNYPKPAMMHPGGAGPMMMPGMPPAGLVRPFPMGPGGPPMPQGQPGLPDIKALPPYINAPPELPPQHNPHLIAAAQFQMAAALQAGHVLGPAAAAAAAAGLPPHAAQFMPNPGMARDSYQLYPWLLSRHGRIFPHRFPGSFLVPPFRKPKRIRTAFSPSQLLKLEHAFESNQYVVGAERKALAQNLNLSETQVKVWFQNRRTKHKRMQQEDEKGGEGGSQRNMHNGSGDEDDDELIDMEMDECPSDEEHELDASH
B4: Bagpipe ORF-CC (Bap-CC) (protein, UniProt P22809 1-382)
chain: B1 chain
B5: Tinman ORF-CC (Tin-CC) (protein, UniProt P22711 1-416)
chain: B2 chain
B6: Knirps ORF-CC (Kni-CC) (protein, UniProt P10734 1-429)
chain: MNQTCKVCGEPAAGFHFGAFTCEGCKSFFGRSYNNISTISECKNEGKCIIDKKNRTTCKACRLRKCYNVGMSKGGSRYGRRSNWFKIHCLLQEHEQAAAAAGKAPPLAGGVSVGGAPSASSPVGSPHTPGFGDMAAHLHHHHQQQQQQQVPRHPHMPLLGYPSYLSDPSAALPFFSMMGGVPHQSPFQLPPHLLFPGYHASAAAAAASAADAAYRQEMYKHRQSVDSVESQNRFSPASQPPVVQPTSSARQSPIDVCLEEDVHSVHSHQSSASLLHPIAIRATPTTPTSSSPLSFAAKMQSLSPVSVCSIGGETTSVVPVHPPTVSAQEGPMDLSMKTSRSSVHSFNDSGSEDQEVEVAPRRKFYQLEAECLTTSSSSSSHSAAHSPNTTTAHAEVKRQKLGGAEATHFGGFAVAHNAASAMRGIFVCV
B7: Bagpipe ORF-3xHA (Bap-HA) (protein, UniProt P22809 1-382)
chain: B1 chain
B8: Tinman ORF-3xHA (Tin-HA) (protein, UniProt P22711 1-416)
chain: B2 chain
B9: Empty spiracles ORF-3xHA (Ems-HA) (protein, UniProt P18488 1-494)
chain: B3 chain
B10: Knirps ORF-3xHA (Kni-HA) (protein, UniProt P10734 1-429)
chain: B6 chain

Target: T1, VC-Exd (Extradenticle fused to the C-terminal fragment of Venus) (Drosophila (D. melanogaster))
Test: split reporter; Venus-based BiFC in live Drosophila embryos; TFs fused to VN with VC-Exd; abdA-Gal4 driver, epidermis of stage 10 embryos

binding	Binder
binds	B1
binds	B2
no binding	B3

Target: CN-AbdA (AbdominalA fused to the N-terminal fragment of Cerulean) (Drosophila (D. melanogaster)) (UniProt P29555)
Test: split reporter; Venus- or Cerulean-based BiFC in live Drosophila embryos; ORF-CC with VN-AbdA or CN-AbdA; abdA-Gal4 driver (epidermis, stage 10/11) or 24B-Gal4 driver (somatic mesoderm, stage 14); confocal observation

binding	Binder
binds	B4
binds	B5
binds	B6

Target: VN-AbdA (AbdominalA fused to the N-terminal fragment of Venus) (Drosophila (D. melanogaster)) (UniProt P29555)
Test: as above

binding	Binder
binds	B4
binds	B5
binds	B6

Target: VN-AbdA (AbdominalA fused to the N-terminal fragment of Venus) (Drosophila (D. melanogaster)) (UniProt P29555)
Test: split reporter; BiFC competition in live Drosophila embryos: VN-AbdA and ORF-CC with co-expression of the corresponding non-complementing ORF-3xHA; abdA-Gal4 driver, epidermis of stage 10/11 embryos; identical parameters of confocal acquisition

binding	Binder
binds	B4
binds	B7
binds	B5
binds	B8
binds	B9
binds	B10
binds	B6

Target: CN-AbdA (AbdominalA fused to the N-terminal fragment of Cerulean) (Drosophila (D. melanogaster)) (UniProt P29555)
Test: split reporter; bicolour BiFC in live Drosophila embryos: ORF-CC co-expressed with CN-AbdA, VN-Exd and a mCherry reporter; abdA-Gal4 driver, stage 10 embryos

binding	Binder
binds	B4
binds	B5

Target: T2, VN-Exd (Extradenticle fused to the N-terminal fragment of Venus) (Drosophila (D. melanogaster))
Test: as above

binding	Binder
binds	B4
binds	B5

Source: PMC6177257
